# Some of these results come from one statement about several compounds together.
# Assay: Isoelectric point determination
# Assay type: physicochemical
# Settings: 10 is the highest pI that can be experimentally determined; listed as native
substance,measurement,value
egg white: native chicken egg white avidin (Sigma Chemical Co.),pI,at least 10
